These are yes or no findings as the source states them, for the method shown. Binding can be weak; no strength is given.

The target in test [1] is rabbit VEGFA (rabbit). In words: ELISA (FIG. 9 legend). For orientation: In an ELISA, binding on a coated surface is turned into a signal by an enzyme label.
Test [2] has as its target rabbit VEGFA (rabbit). Briefly: ELISA, antibody coated at 1 ug/mL, biotinylated ligand at 1 ug/mL, SA-HRP (FIG. 9).

B1: hu bi-Nb24(Y) (VHH)
chain: EVQLQESGGGLVQPGGSLRLSCTASGFTFDDPDVGWFRQAPGNECELVSTISKDGSTYYTDSVKGRFTISRDYAKNTVYLQMNSLRAEDTAVYYCAADSNPIAPIRTCLGWYNYWGQGTLVTVSSGGGGSGGGSEVQLQESGGGLVQPGGSLRLSCTASGFTFDDPDVGWFRQAPGNECELVSTISKDGSTYYTDSVKGRFTISRDYAKNTVYLQMNSLRAEDTAVYYCAADSNPIAPIRTCLGWYNYWGQGTLVTVSS
For B1, the binding result with rabbit VEGFA (rabbit) [1] and with rabbit VEGFA (rabbit) [2] was “binds” each time.
